Reference: article doi:10.1101/2021.12.08.471779
Residue numbers refer to the chain shown, from its start. No constants are given. Whether binding was seen depends on the method and setting. Binding seen in cells or lysates may run through a third protein. Some binding calls cover weakened binding; strength is not graded here.

Amino acid sequences for entries named in this document (tags omitted). A change or cut given only in a name is not applied to a line headed by its entry.
UniProt P05825, whole entry, looked up, stated change not applied: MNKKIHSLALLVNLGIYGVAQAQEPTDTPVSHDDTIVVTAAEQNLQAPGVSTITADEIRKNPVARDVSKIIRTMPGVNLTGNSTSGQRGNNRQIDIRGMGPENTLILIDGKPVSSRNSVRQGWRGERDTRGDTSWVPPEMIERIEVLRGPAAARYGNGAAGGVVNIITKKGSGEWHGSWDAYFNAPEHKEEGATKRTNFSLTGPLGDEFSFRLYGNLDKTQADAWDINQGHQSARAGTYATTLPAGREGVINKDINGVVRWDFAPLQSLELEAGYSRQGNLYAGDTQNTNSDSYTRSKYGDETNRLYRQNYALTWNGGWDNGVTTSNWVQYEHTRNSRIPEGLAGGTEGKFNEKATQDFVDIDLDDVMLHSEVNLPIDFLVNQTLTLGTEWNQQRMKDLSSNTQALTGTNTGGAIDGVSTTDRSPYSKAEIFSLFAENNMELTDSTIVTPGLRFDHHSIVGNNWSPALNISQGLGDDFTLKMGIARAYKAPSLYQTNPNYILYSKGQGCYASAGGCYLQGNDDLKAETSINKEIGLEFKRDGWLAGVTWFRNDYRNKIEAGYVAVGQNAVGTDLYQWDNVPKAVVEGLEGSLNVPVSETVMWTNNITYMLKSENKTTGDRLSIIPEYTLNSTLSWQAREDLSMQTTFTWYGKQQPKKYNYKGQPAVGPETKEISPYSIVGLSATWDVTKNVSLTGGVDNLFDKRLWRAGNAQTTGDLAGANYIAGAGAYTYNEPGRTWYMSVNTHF
UniProt P02929, whole entry, looked up, stated change not applied: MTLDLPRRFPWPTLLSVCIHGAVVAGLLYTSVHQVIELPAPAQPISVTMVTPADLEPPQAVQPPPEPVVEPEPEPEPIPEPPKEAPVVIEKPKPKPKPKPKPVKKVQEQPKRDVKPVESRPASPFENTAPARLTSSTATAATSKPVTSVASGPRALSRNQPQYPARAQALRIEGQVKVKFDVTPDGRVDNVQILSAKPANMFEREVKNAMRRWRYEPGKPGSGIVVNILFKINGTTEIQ

What was measured:
Assay in all cases: cross-linking
[1] = biological target: T1, FepA T17C (Escherichia coli K-12) (UniProt P05825)
T1 sequence: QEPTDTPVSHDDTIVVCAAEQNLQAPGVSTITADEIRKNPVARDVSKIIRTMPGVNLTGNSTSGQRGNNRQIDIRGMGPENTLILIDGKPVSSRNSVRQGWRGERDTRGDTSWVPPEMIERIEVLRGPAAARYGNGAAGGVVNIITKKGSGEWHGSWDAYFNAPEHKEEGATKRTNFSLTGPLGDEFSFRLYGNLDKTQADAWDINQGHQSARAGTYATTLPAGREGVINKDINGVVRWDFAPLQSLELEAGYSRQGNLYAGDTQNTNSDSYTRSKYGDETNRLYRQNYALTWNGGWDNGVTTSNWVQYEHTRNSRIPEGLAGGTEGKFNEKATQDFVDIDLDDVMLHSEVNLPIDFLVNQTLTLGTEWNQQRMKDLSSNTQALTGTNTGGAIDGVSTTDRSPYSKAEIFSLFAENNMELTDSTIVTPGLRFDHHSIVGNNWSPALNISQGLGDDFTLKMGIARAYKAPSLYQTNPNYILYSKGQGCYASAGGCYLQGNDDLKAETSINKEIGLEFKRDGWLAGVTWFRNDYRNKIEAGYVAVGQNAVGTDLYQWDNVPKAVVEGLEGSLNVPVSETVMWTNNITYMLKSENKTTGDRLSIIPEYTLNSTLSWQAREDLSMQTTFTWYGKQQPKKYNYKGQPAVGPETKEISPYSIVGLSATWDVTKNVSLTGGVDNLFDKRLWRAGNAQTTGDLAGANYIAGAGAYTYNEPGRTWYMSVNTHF

[2] = biological target: T2, FepA I145C (Escherichia coli K-12) (UniProt P05825)
T2 sequence: T1 sequence with C17T, I145C

[3] = biological target: T3, FepA V91C (Escherichia coli K-12) (UniProt P05825)
T3 sequence: T1 sequence with C17T, V91C

| binding [1] | binding [2] | binding [3] | Substance |
| --- | --- | --- | --- |
| no binding | – | – | TonB C18G H20A R212C (from UniProt P02929 1-239) |
| no binding | – | – | TonB C18G H20A R204C (from UniProt P02929 1-239) |
| binds | no binding | no binding | TonB C18G Q160C (from UniProt P02929 1-239) |
| no binding | – | – | TonB C18G H20A A209C (from UniProt P02929 1-239) |
| no binding | no binding | no binding | TonB C18G A209C (from UniProt P02929 1-239) |
| – | no binding | no binding | TonB C18G R214C (from UniProt P02929 1-239) |
| binds | no binding | no binding | TonB C18G R212C (from UniProt P02929 1-239) |
| no binding | no binding | no binding | TonB C18G V206C (from UniProt P02929 1-239) |
| no binding | no binding | no binding | TonB C18G N208C (from UniProt P02929 1-239) |
| – | no binding | no binding | TonB C18G M201C (from UniProt P02929 1-239) |
| no binding | – | – | TonB C18G H20A V206C (from UniProt P02929 1-239) |
| binds | no binding | no binding | TonB C18G R204C (from UniProt P02929 1-239) |
| binds | – | – | TonB C18G H20A Q160C (from UniProt P02929 1-239) |
